Data as given in PubChem BioAssay AID504764 (Drosophila RNAi Screening Center, 2011)

- Purpose: 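Genome-wide screen for regulators of Notch-driven gene expression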 (primary screen)
- Cells: Drosophila Kc167 cells
- Reagent: long dsRNA against Drosophila genes
- Time to read-out: about 5 days (4 days dsRNA, then 24 h after transfection)
- Challenge: transfection of constitutively active membrane-tethered Notch lacking the extracellular domain, read 24 h later
- Measured: 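Firefly luciferase from an E(spl)m3 reporter with active Notch, plus control-promoter and uninduced reporter wells for normalisation; unnormalised counts, duplicate wells a and b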
- Scale: induced reporter light, run 1, well a and induced reporter light, run 1, well b: higher = more light from the Notch target reporter with active Notch; control promoter light, run 1, well a and control promoter light, run 1, well b: higher = more light from the viral control promoter (cell number, transfection, viability); uninduced reporter light, run 1, well a: higher = more light from the Notch target reporter without active Notch
- Active means: 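Wells with low control signal or poorly matching duplicates excluded; duplicates averaged; per source plate, z beyond ±2 for induced/control log2 ratio or beyond ±1.8 for induced/uninduced marks a hit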
- Calls: active = modifier hit (raised or lowered Notch signal); inactive = not a hit
The deposit covers about 22,000 reagents; below is an unselected part of those that have a named target and a result. Of all reagents, 403 (1.9%) got an active call. 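Unnormalised raw counts per well; ratio z-scores behind the hit calls and whether each hit raises or lowers signal are not deposited.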 The numbers tell different reagents against one gene apart. A plus sign joins genes that one reagent is predicted to hit. No sequences are given here. Not stated in the record: the amount of reagent.

After knock-down of CG17261 the results were induced reporter light, run 1, well a = 1.77e5; induced reporter light, run 1, well b = 1.31e5; control promoter light, run 1, well a = 1.91e5; control promoter light, run 1, well b = 1.53e5; uninduced reporter light, run 1, well a = 11230; inactive.
CG13314 gave induced reporter light, run 1, well a = 1.65e5; induced reporter light, run 1, well b = 1.72e5; control promoter light, run 1, well a = 2.51e5; control promoter light, run 1, well b = 1.99e5; uninduced reporter light, run 1, well a = 9340; inactive.
CG33269 showed induced reporter light, run 1, well a = 1.18e5; induced reporter light, run 1, well b = 1.09e5; control promoter light, run 1, well a = 1.22e5; control promoter light, run 1, well b = 1.26e5; uninduced reporter light, run 1, well a = 10285; inactive.
After knock-down of CG4872 the results were induced reporter light, run 1, well a = 1.12e5; induced reporter light, run 1, well b = 1.32e5; control promoter light, run 1, well a = 1.09e5; control promoter light, run 1, well b = 46910; uninduced reporter light, run 1, well a = 9565; inactive.
Knock-down of sax resulted in: induced reporter light, run 1, well a = 2.02e5; induced reporter light, run 1, well b = 1.74e5; control promoter light, run 1, well a = 1.65e5; control promoter light, run 1, well b = 1.95e5; uninduced reporter light, run 1, well a = 15100; inactive.
MsR2 + CG13802 (retired record) #1 showed induced reporter light, run 1, well a = 1.22e5; induced reporter light, run 1, well b = 1.01e5; control promoter light, run 1, well a = 1.05e5; control promoter light, run 1, well b = 92880; uninduced reporter light, run 1, well a = 6940; active.
With knock-down of MsR2 + CG13802 (retired record) #2, the record shows induced reporter light, run 1, well a = 93180; induced reporter light, run 1, well b = 1.15e5; control promoter light, run 1, well a = 1.49e5; control promoter light, run 1, well b = 1.00e5; uninduced reporter light, run 1, well a = 5860; inactive.
Against epsilonTry, the entry reads induced reporter light, run 1, well a = 1.36e5; induced reporter light, run 1, well b = 1.36e5; control promoter light, run 1, well a = 1.86e5; control promoter light, run 1, well b = 1.59e5; uninduced reporter light, run 1, well a = 12775; inactive.
Silencing of CG12995 came out at: induced reporter light, run 1, well a = 82100; induced reporter light, run 1, well b = 66155; control promoter light, run 1, well a = 96845; control promoter light, run 1, well b = 74595; uninduced reporter light, run 1, well a = 12500; inactive.
Shawl #1 showed induced reporter light, run 1, well a = 1.20e5; induced reporter light, run 1, well b = 1.62e5; control promoter light, run 1, well a = 58090; control promoter light, run 1, well b = 99460; uninduced reporter light, run 1, well a = 18565; inactive.
With knock-down of Shawl #2, the screen gave induced reporter light, run 1, well a = 1.34e5; induced reporter light, run 1, well b = 1.52e5; control promoter light, run 1, well a = 78695; control promoter light, run 1, well b = 1.11e5; uninduced reporter light, run 1, well a = 18560; inactive.
With knock-down of CG8136, the record shows induced reporter light, run 1, well a = 1.12e5; induced reporter light, run 1, well b = 1.13e5; control promoter light, run 1, well a = 1.09e5; control promoter light, run 1, well b = 80045; uninduced reporter light, run 1, well a = 9730; inactive.

A portion of the results above:
sax | induced reporter light, run 1, well a = 2.02e5; induced reporter light, run 1, well b = 1.74e5; control promoter light, run 1, well a = 1.65e5; control promoter light, run 1, well b = 1.95e5; uninduced reporter light, run 1, well a = 15100; Outcome = inactive
MsR2 + CG13802 (retired record) #1 | induced reporter light, run 1, well a = 1.22e5; induced reporter light, run 1, well b = 1.01e5; control promoter light, run 1, well a = 1.05e5; control promoter light, run 1, well b = 92880; uninduced reporter light, run 1, well a = 6940; Outcome = active
